Measured values: patent US8895047B2, “Combined fibrinolytic and antimicrobial catheter and uses thereof” (priority 2007, dated 2014)
At least one compound was matched to its structure with a doubt left.

Sequences of proteins named here, by UniProt entry; tags and fusion partners are left off. Residues count along the entry.
UniProt P00750, 36-562: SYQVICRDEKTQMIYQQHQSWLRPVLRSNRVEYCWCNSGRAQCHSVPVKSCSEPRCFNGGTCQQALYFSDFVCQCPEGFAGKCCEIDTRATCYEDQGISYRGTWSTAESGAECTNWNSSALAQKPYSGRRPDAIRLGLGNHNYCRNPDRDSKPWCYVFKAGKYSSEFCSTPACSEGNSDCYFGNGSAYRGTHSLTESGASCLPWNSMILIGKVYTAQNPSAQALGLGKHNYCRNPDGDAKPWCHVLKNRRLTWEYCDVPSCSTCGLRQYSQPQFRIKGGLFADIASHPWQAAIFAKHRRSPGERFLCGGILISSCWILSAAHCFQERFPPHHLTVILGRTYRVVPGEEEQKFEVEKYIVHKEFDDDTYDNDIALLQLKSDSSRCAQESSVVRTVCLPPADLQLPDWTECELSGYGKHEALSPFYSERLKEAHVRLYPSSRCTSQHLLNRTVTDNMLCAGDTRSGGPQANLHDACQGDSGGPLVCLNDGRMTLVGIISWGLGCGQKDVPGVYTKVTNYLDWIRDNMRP

How the values were obtained:
human tPA = target: T1, human tPA (Homo sapiens, UniProt P00750); experiment: tPA activity assay (chromogenic substrate) after incubation with antimicrobial agents; format: biochemical; details: concentrations up to 10 μg/mL, overnight at 37° C. with 50 units human tPA; FIGS. 5 and 6
T1 construct: purchased Sigma
Experimental: Different combinations of CHX, GV, minocycline and rifampin (0, 1, 10 μg/mL) were incubated overnight with 50 units of human tPA (Sigma) at 37° C., in buffer (30 mM Tris-HCl, 30 mM Imidazole, 130 mM NaCl, 1% protease free albumin). Samples were incubated with the chromogenic substrate (Sigma); tPA activity was determined by the hydrolysis of the substrate being measured continuously at 405 nm for 5 min at 50 seconds intervals. A standard curve was generated and the units plotted against the slope of the hydrolysis reaction.

human urokinase enzyme = target: T2, human urokinase enzyme (Homo sapiens, UniProt P00749); experiment: uPA activity assay (chromogenic substrate) after incubation with antimicrobial agents; format: biochemical; details: concentrations up to 10 μg/mL, 24 hours at 37° C. with 88 units (0.5 μg) uPA in PBS; FIGS. 2 and 3
T2 construct: purchased American Diagnostica
Experimental: To check the compatibility of urokinase (uPA) and chlorhexidine acetate (CHA), human urokinase enzyme (American Diagnostica) at different concentrations (0, 0.05, 0.5, and 1.0 μg/mL) was incubated with CHA at concentrations between 0-10 μg/mL for 24 hours at 37° C. in phosphate buffered saline (PBS). Subsequently, urokinase activity was measured using uPA Activity Assay Kit (Chemicon). Samples were incubated with an assay buffer and a chromogenic substrate for uPA resulting in the formation of a colored complex followed by reading the absorbance on a spectrophotometer at 405 nm. In a 96 well plate, different combinations of chlorhexidine (CHX), gentian violet (GV), minocycline and rifampin were incubated at concentrations of 0, 1, 10 μg/mL, for 24 hours at 37° C., with 88 units (0.5 μg) of uPA in PBS. Urokinase activity was measured using uPA Activity Assay Kit as described earlier.

CN(C)c1ccc(O)c2c1C[C@H]1C[C@H]3[C@H](N(C)C)C(O)=C(C(N)=O)C(=O)[C@@]3(O)C(O)=C1C2=O [minocycline]
tPA activity in the presence of antimicrobial agent (human tPA): not affected | Urokinase activity in the presence of antimicrobial agent (human urokinase enzyme): not adversely affected
